This note sets out measurements from article PMC3248559.

These are yes or no findings as the source states them, for the method shown. Binding calls can cover weak binding; strength is not graded here.

In this assay the target is T1, MoMagB (Magnaporthe oryzae) (UniProt O13315).
T1 sequence: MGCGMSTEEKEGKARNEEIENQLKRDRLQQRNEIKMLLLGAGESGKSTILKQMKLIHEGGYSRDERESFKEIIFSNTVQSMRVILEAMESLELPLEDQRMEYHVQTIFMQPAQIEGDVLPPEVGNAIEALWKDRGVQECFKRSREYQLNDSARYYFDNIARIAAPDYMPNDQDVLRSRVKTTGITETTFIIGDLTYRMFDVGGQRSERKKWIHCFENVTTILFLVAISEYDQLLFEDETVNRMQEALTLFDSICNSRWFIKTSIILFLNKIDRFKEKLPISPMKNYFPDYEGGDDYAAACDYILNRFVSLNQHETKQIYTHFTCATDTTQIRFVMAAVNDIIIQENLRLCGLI
As to the kind of experiment: two-hybrid.

As for MoRgs2 (from UniProt G4NAT9), the binding result is “binds”.
The result for “MoRgs8 RGS domain (from UniProt G4N2V0) (domain or fragment)” reads “binds”.
